Assay results: PubChem BioAssay AID248 (DTP/NCI, 2004)
The list is a part of this screen's results and no random one: it gathers tests that were run many times, whatever their T/C, doses with no T/C, and many T/C values between a quarter and a half above the control. Further doses and runs are listed elsewhere. T/C gives the treated animals as a percentage of the vehicle group. Some doses have a count of surviving animals in place of a T/C: the source holds a T/C of zero for them, seemingly a mark for toxic or unscored doses. Counts of survivors are from the toxicity check (mostly the fifth day) where no day follows; animals may have died later. Schedule codes are those of the source, taken here to give the interval after Q, in days (D) or hours (H), and the number of doses after X.

System: L1210 leukemia ip in BDF1 mice, survival T/C
Assay: NCI In Vivo Anticancer Drug Screen. Data for tumor model L1210 Leukemia (intraperitoneal) in B6D2F1 (BDF1) mice
Conditions: T/C endpoint: mean survival time, higher T/C = longer survival
[1] = dose: 400.0 mg/kg/injection, schedule: Q01DX001 (ip), vehicle: saline

In the case of `CC(=O)NC1CCCCC1c1ccc(C2CCCCC2NC(C)=O)cc1` (stereo not given), the survivor count [1] is reported as 0 of 6.

`Cc1cccc(Cl)c1N=C=O` was tested, and the survivor count [1] was 0 of 4.

In the case of `COC(=O)N1C(C)=CC=CC=C1C`, the survivor count (dose: 200.0 mg/kg/injection, schedule: Q04DX002 (ip), vehicle: Klucel (hydroxypropylcellulose) (HPC)) is reported as 0 of 3 and the survivor count (dose: 400.0 mg/kg/injection, schedule: Q04DX002 (ip), vehicle: Klucel (hydroxypropylcellulose) (HPC)) is reported as 0 of 3.

`O=c1cc(O)ccn1CCc1cccs1` was tested, and the survivor count (dose: 400.0 mg/kg/injection, schedule: Q01DX009 (ip), vehicle: saline with Tween-80) was 2 of 6.
